Experimental data: US8835485B2, “Prevention and treatment of sarcopenia” (PsiOxus Therapeutics Limited, priority 2009, dated 2014)

How the values were obtained:
[1] = test system: Old, healthy, male Wistar Han rats; experiment: S-Pindolol in old (19 month) rats, 28 days: body weight, lean mass, organ weights; assay type: in vivo, rat; conditions: 3 mg/kg/d
Protocol: Old, healthy, male Wistar Han rats (age 19 month, at the start of the experiment) were housed in groups of two to three per cage under standard laboratory conditions. Animals were randomized to receive either 3 mg/kg/d S-Pindolol/kg/d (n=8), or placebo (n=14) once daily per gavage for 28 days. Body composition (lean mass) of the animals was analyzed using the EchoMRI-700 system (Echo Medical Systems, Houston, Tex., USA) before treatment, once per week during the study and at the end of the study. Body weight was recorded before treatment, once per week during the study and at the end of study. Organ weights were recorded at the end of study. One tibialis muscle per animals was dried at 60° C. for 48 h.

[2] = test system: Young, healthy, male Wistar Han rats; experiment: S-Pindolol in young healthy rats, 16 days: body weight, lean mass, organ weights; assay type: in vivo, rat; conditions: gavage; for Spleen organ weight at the end of the study: placebo 639 ± 19; for Liver organ weight at the end of the study: placebo 10454 ± 287
Protocol: Young, healthy, male Wistar Han rats (201.8±2.4 g) were housed in groups of two to three per cage under standard conditions. Animals were randomized to receive either 0.3 mg S-Pindolol/kg/d (n=5), 3 mg S-Pindolol/kg/d (n=5) or placebo (n=16) once daily per gavage for 16 days. Body composition (lean mass) of the animals was analyzed using the EchoMRI-700 system (Echo Medical Systems, Houston, Tex., USA) before treatment and at the end of the study. Body weight was recorded before treatment and at the end of study. Organ weights were recorded at the end of study.

With CC(C)NC[C@H](O)COc1cccc2[nH]ccc12 [S-Pindolol, S-(−)-1-(1H-indol-4-yloxy)-3-(1-methylethylamino)propan-2-ol] the “Liver organ weight at the end of the study” value (shortened to “Liver organ weight at the end”) ([1]; placebo 13.68 ± 0.74) was 13.98 ± 0.76 g, the “Spleen organ weight at the end of the study” value (“Spleen organ weight at the end” for short) ([1]; placebo 924 ± 46) was 1045 ± 84 mg and the “Spleen organ weight at the end” value ([2]; 0.3 mg/kg/d) was 634 ± 14 mg. The “Liver organ weight at the end” value ([2]; 0.3 mg/kg/d) was 10156 ± 265 mg, the “Spleen organ weight at the end” value ([2]; 3 mg/kg/d) was 622 ± 37 mg and the “Liver organ weight at the end” value ([2]; 3 mg/kg/d) was 10568 ± 410 mg.
